Reference: patent US20250241586A1, “Bioavailability and bioequivalence through intrinsic activity and KD measurements, in vivo, in humans” (priority 2024, published 2025)
Where two headings read alike, the source gives them in different places.

By UniProt entry, the sequences of proteins in these tests, tags left out. Where a name states a change or a piece, a line headed by the entry shows the natural chain unless it says otherwise.
UniProt Q09428: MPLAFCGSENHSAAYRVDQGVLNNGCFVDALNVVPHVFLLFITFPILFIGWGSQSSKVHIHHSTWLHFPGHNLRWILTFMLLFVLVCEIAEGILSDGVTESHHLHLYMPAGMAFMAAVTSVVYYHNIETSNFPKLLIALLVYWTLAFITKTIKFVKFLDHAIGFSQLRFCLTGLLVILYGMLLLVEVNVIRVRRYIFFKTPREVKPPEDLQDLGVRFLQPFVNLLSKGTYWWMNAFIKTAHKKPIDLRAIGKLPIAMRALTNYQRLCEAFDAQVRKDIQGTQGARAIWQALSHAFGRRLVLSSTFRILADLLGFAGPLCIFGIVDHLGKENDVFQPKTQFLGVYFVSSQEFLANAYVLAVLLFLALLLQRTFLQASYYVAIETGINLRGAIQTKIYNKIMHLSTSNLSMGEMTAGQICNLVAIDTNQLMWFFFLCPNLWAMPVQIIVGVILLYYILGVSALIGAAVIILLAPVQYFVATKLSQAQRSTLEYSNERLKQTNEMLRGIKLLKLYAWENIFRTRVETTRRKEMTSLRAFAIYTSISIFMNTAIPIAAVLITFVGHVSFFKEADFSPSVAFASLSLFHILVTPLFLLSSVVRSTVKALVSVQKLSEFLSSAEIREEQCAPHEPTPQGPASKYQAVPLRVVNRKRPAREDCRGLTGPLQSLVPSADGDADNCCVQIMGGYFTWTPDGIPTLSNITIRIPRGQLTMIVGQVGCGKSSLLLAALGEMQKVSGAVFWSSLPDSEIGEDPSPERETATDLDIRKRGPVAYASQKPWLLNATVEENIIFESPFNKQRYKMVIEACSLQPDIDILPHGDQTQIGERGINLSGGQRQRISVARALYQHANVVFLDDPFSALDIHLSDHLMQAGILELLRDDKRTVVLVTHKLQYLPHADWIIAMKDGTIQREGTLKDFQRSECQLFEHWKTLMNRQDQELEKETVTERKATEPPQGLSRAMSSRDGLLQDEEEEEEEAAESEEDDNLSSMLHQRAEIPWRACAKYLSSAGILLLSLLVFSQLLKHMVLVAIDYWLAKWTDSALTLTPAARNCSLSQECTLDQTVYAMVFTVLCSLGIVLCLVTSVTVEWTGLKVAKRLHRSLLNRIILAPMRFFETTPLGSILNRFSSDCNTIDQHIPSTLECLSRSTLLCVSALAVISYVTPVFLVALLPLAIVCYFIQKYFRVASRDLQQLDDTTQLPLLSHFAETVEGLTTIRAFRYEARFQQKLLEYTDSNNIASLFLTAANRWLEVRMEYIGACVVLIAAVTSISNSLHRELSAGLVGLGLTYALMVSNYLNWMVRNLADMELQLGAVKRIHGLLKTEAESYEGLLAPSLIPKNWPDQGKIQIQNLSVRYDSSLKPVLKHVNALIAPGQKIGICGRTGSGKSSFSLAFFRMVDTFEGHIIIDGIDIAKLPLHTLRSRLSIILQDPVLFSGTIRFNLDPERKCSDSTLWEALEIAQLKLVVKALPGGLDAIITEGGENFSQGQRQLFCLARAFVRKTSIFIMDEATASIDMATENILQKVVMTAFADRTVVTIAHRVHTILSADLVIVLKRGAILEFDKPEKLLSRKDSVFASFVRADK

Biological target: K+ channels of the beta cells of the pancreas (Homo sapiens, UniProt Q09428)

Cc1cnc(C(=O)NCCc2ccc(S(=O)(=O)NC(=O)NC3CCCCC3)cc2)cn1 [Glipizide, glipizide]
Response AUC reduction (glipizide dose 20 Mcg/kg): 153 mg·h/dL
Response AUC reduction (glipizide dose 40 Mcg/kg): 732 mg·h/dL
Response AUC reduction (glipizide dose 65 Mcg/kg): 996 mg·h/dL
